This note sets out measurements from paper PMC11872639 (Food Chemistry: Molecular Sciences, 2025).

No constants are given. Whether binding was seen depends on the method and setting.

Assay [1] has as its target human TAS1R1 Venus flytrap domain (TAS1R1-VFT) (human) (UniProt Q7RTX1). The assay can be described thus: SEC-MALS; Shodex KW803 column, 50 mM Tris-HCl pH 8.0, 150 mM NaCl, 0.1 mM DDM; 100 uL of the gel filtration-purified fraction at 1.2 mg/mL, 0.5 mL/min; both purified. A general note: SEC sorts molecules by how far they enter the pores of the column.
Assay [2] shares this target. As to the kind of experiment: SEC; Superdex 200 10/300GL, 50 mM Tris-HCl pH 8.0, 150 mM NaCl, 0.1 mM DDM, 0.5 mL/min; column calibrated with molecular mass markers; apparent masses; both purified.
In assay [3] the target is human TAS1R3 Venus flytrap domain (TAS1R3-VFT) (human) (UniProt Q7RTX0). As to the kind of experiment: SEC-MALS; Shodex KW803 column, 50 mM Tris-HCl pH 8.0, 150 mM NaCl, 0.1 mM DDM; 100 uL of the gel filtration-purified fraction at 1.2 mg/mL, 0.5 mL/min; both purified.
For assay [4] the target is unchanged. The assay can be described thus: SEC; Superdex 200 10/300GL, 50 mM Tris-HCl pH 8.0, 150 mM NaCl, 0.1 mM DDM, 0.5 mL/min; column calibrated with molecular mass markers; apparent masses; both purified.

B1: human TAS1R1 Venus flytrap domain (TAS1R1-VFT) (domain or fragment, UniProt Q7RTX1-1 21-495)
chain: FACHSTESSPDFTLPGDYLLAGLFPLHSGCLQVRHRPEVTLCDRSCSFNEHGYHLFQAMRLGVEEINNSTALLPNITLGYQLYDVCSDSANVYATLRVLSLPGQHHIELQGDLLHYSPTVLAVIGPDSTNRAATTAALLSPFLVPMISYAASSETLSVKRQYPSFLRTIPNDKYQVETMVLLLQKFGWTWISLVGSSDDYGQLGVQALENQATGQGICIAFKDIMPFSAQVGDERMQCLMRHLAQAGATVVVVFSSRQLARVFFESVVLTNLTGKVWVASEAWALSRHITGVPGIQRIGMVLGVAIQKRAVPGLKAFEEAYARADKKAPRPCHKGSWCSSNQLCRECQAFMAHTMPKLKAFSMSSAYNAYRAVYAVAHGLHQLLGCASGACSRGRVYPWQLLEQIHKVHFLLHKDTVAFNDNRDPLSSYNIIAWDWNGPKWTFTVLGSSTWSPVQLNINETKIQWHGKDNQVPKS
Consider B1, for which the binding result in assay [1] was “no binding (tested: 1.2 mg/mL)”; in assay [2], “no binding”.

B2: human TAS1R3 Venus flytrap domain (TAS1R3-VFT) (domain or fragment, UniProt Q7RTX0 21-497)
chain: APLCLSQQLRMKGDYVLGGLFPLGEAEEAGLRSRTRPSSPVCTRFSSNGLLWALAMKMAVEEINNKSDLLPGLRLGYDLFDTCSEPVVAMKPSLMFLAKAGSRDIAAYCNYTQYQPRVLAVIGPHSSELAMVTGKFFSFFLMPQVSYGASMELLSARETFPSFFRTVPSDRVQLTAAAELLQEFGWNWVAALGSDDEYGRQGLSIFSALAAARGICIAHEGLVPLPRADDSRLGKVQDVLHQVNQSSVQVVLLFASVHAAHALFNYSISSRLSPKVWVASEAWLTSDLVMGLPGMAQMGTVLGFLQRGAQLHEFPQYVKTHLALATDPAFCSALGEREQGLEEDVVGQRCPQCDCITLQNVSAGLNHHQTFSVYAAVYSVAQALHNTLQCNASGCPAQDPVKPWQLLENMYNLTFHVGGLPLRFDSSGNVDMEYDLKLWVWQGSVPRLHDVGRFNGSLRTERLKIRWHTSDNQKPVS
B2: the binding entry is “no binding (tested: 1.2 mg/mL)” in assay [3] and “no binding” in assay [4].
